Screening data

By UniProt entry, the sequences of proteins in these tests, tags left out.
UniProt O94925, whole entry, target on record: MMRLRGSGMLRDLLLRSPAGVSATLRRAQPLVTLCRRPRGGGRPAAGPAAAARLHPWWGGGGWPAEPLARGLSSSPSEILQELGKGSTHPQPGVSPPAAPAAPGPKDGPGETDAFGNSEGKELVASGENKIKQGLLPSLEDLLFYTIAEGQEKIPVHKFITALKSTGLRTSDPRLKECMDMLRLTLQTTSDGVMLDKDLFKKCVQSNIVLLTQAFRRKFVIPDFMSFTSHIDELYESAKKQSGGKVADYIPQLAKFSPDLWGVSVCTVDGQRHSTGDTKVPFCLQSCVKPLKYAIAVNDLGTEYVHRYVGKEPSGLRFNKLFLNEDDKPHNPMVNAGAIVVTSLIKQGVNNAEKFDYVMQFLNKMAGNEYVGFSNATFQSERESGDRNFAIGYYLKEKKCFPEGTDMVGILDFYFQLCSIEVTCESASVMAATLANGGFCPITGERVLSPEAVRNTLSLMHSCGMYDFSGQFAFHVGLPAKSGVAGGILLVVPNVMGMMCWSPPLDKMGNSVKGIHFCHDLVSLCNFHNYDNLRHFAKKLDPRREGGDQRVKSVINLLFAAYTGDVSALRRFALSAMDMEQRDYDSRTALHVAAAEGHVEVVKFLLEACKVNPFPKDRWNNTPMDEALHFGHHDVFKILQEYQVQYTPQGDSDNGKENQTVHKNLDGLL

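Inhibition of human glutaminase (kidney isoform) in a cell-free reaction, sensed through fluorescence rising as glutamate is converted by coupled enzymes, read after a half-hour incubation.
Each compound was run as a five-point series from about 0.074 to 46 µM.
The number is the fitted potency (AC50, nM) for enzyme inhibition; a lower value means a more potent inhibitor.
Calls come from a 0–100 score set by curve class and fitted AC50, with 40–100 active, 1–39 inconclusive and 0 inactive; these rows show weak, partial, poorly fitted or single-point inhibition curves.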

Values are in nM.
All entries here are filed as inconclusive.
Only part of the assay is shown, chiefly results filed as inconclusive.
Potencies fitted to partial, single-point or poorly fitting curves are rough.
Some entries filed as inconclusive have a full curve.
Activity scores are not listed here.

C[C@H]1c2cccc(O)c2C(O)=C2C(=O)[C@]3(O)C(O)=C(C(N)=O)C(=O)[C@@H](N(C)C)[C@@H]3[C@@H](O)[C@@H]21 gave Potency 2818 nM (inhibitor, partial curve).
NC(C(=O)N[C@@H]1C(=O)N2C(C(=O)O)=C(Cl)CS[C@H]12)c1ccccc1 (stereo partly specified) gave Potency 14125 nM (inhibitor, partial curve, poor fit).
O=c1ccc2ccc(O)c(O)c2o1 gave Potency 1778 nM (inhibitor, full curve).
N#Cc1cc([N+](=O)[O-])c2sc(C(N)=O)[n+]([O-])c2c1 gave Potency 3162 nM (inhibitor, single point).
CS(=O)(=O)Nc1ccc([N+](=O)[O-])cc1Oc1ccccc1 gave Potency 35481 nM (inhibitor, single point).
CCCN(CCC)CCc1ccc(O)c(O)c1 gave Potency 354.8 nM (inhibitor, full curve, poor fit).
CCOC(=O)N1CCN(/[N+]([O-])=N/Oc2ccc([N+](=O)[O-])cc2[N+](=O)[O-])CC1 gave Potency 35481 nM (inhibitor, single point).
O=c1c(O)c(-c2cc(O)c(O)c(O)c2)oc2cc(O)cc(O)c12 gave Potency 794.3 nM (inhibitor, full curve, poor fit).
COc1ccccc1N1CCN(CC(O)COc2cccc3ccccc23)CC1 (stereo unspecified) gave Potency 7943 nM (inhibitor, partial curve, poor fit).
O=c1c(O)c(-c2ccc(O)cc2O)oc2cc(O)cc(O)c12 gave Potency 2818 nM (inhibitor, full curve).
CN(C)[C@@H]1C(=O)C(C(N)=O)=C(O)[C@@]2(O)C(=O)C3=C(O)c4c(O)ccc(Cl)c4[C@@H](O)[C@H]3C[C@@H]12 gave Potency 3162 nM (inhibitor, partial curve, poor fit).
O=C1/C(=C/c2ccsc2)CC/C1=C\c1cccs1 gave Potency 28183 nM (inhibitor, partial curve, poor fit).
CN1C[C@H](CNC(=O)OCc2ccccc2)C[C@@H]2c3cccc4c3c(cn4C)C[C@H]21 gave Potency 17782 nM (inhibitor, partial curve, poor fit).
CC[C@@H](CO)NC(=O)[C@@H]1C=C2c3cccc4[nH]cc(c34)C[C@H]2N(C)C1 gave Potency 8912 nM (inhibitor, partial curve, poor fit).
COC(=O)C1=C(C)NC(C)=C(C(=O)OC)C1c1ccccc1[N+](=O)[O-] gave Potency 12589 nM (inhibitor, partial curve).
Brc1c(NC2=NCCN2)ccc2nccnc12 gave Potency 7080 nM (inhibitor, full curve).
Cc1ccc(N(CC2=NCCN2)c2cccc(O)c2)cc1 gave Potency 11220 nM (inhibitor, partial curve, poor fit).
CCCCCCCC/C=C\CCCCCCCC(=O)NCCO gave Potency 35481 nM (inhibitor, single point).
CC1(C)C(=O)N(CCN2CCC(C(=O)c3ccc(F)cc3)CC2)c2ccccc21 gave Potency 316.2 nM (inhibitor, full curve, poor fit).
C[C@@H](O)[C@H]1C(=O)N2C(C(=O)O)=C(SCCN=CN)C[C@H]12 gave Potency 7080 nM (inhibitor, partial curve, poor fit).
O=C(CCc1ccc(O)cc1)c1c(O)cc(O)cc1O gave Potency 2239 nM (inhibitor, partial curve, poor fit).
c1ccc(C(NCc2cccnc2)(c2ccccc2)c2ccccc2)cc1 gave Potency 281.8 nM (inhibitor, full curve, poor fit).
Fc1ccc(C(OCCN2CCN(CCCc3ccccc3)CC2)c2ccc(F)cc2)cc1 gave Potency 251.2 nM (inhibitor, full curve, poor fit).
NC1CCN(O)C1=O (stereo unspecified) gave Potency 5623 nM (inhibitor, partial curve).
N[C@@H](Cc1c[nH]c2ccccc12)C(=O)O gave Potency 1585 nM (inhibitor, partial curve, poor fit).
CCC1(C)CC(=O)NC1=O (stereo unspecified) gave Potency 5623 nM (inhibitor, single point).
Cn1c(=O)c2[nH]cnc2n(C)c1=O gave Potency 112.2 nM (inhibitor, full curve, poor fit).
N#CC(C#N)=C(N)/C(C#N)=C/c1ccc(O)cc1 gave Potency 8912 nM (inhibitor, partial curve, poor fit).
CN1CCC(=C2c3ccccc3CC(=O)c3sccc32)CC1 gave Potency 19952 nM (inhibitor, partial curve, poor fit).
Oc1cc(O)c2c(c1)O[C@H](c1ccc(O)c(O)c1)[C@@H](O)C2 gave Potency 1585 nM (inhibitor, full curve, poor fit).
CN(C)c1cc2c(Nc3ccc4c(cnn4Cc4ccccc4)c3)ncnc2cn1 gave Potency 35481 nM (inhibitor, single point).

The first 2 entries again:

{"compound": "C[C@H]1c2cccc(O)c2C(O)=C2C(=O)[C@]3(O)C(O)=C(C(N)=O)C(=O)[C@@H](N(C)C)[C@@H]3[C@@H](O)[C@@H]21", "Potency (nM)": "2818", "remark": "inhibitor, partial curve"}
{"compound": "NC(C(=O)N[C@@H]1C(=O)N2C(C(=O)O)=C(Cl)CS[C@H]12)c1ccccc1", "stereo": "stereo partly specified", "Potency (nM)": "14125", "remark": "inhibitor, partial curve, poor fit"}

Data taken from PubChem BioAssay AID624146, deposited by NCATS (2012).